Data from PubChem BioAssay AID1458 (National Center for Advancing Translational Sciences (NCATS), 2008).
Among all 210,000 compounds or so, about 5,900 (2.8%) were called active. Inconclusive results (about 5%) are left out. Calls come from the whole dose curve; as a rule, active = well fitted activation curve with a large enough effect; inconclusive = small, poorly fitted or top-dose-only effect; inactive = no such curve, though single readings can be large or run the other way. The list shows a part of the results, in another mix than the full data. The source gives no active or inactive call for entries shown without one.

test: qHTS Assay for Enhancers of SMN2 Splice Variant Expression; settings: HEK293 SMN2-luciferase splicing reporter, luminescence, 30-36 h; activity change, positive = activation: at 46.1 µM (top of the series) unless noted; note: nearly all actives have a fitted effect of over 55% in size; for activity change, positive = activation: % of control where 0% means no effect
Procedure, shortened: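 HEK293 cells carry an SMN2 minigene-luciferase reporter in which exon 7 inclusion puts luciferase in frame. Cells were seeded at 2000 cells/well, attached for 10-12 hours, then exposed to compounds for 30-36 hours at 37C before ONE-Glo luminescence.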
Potency is the fitted concentration of half-maximal effect.

Structure (SMILES)	activity change, positive = activation	Potency
CCn1c(COc2ccccc2C)nnc1SCC(=O)Nc1ccc2c(c1)OCCO2	27.2%	
O=C(COc1ccccc1)Nc1ccccc1NS(=O)(=O)c1cccs1	3.89%	
COc1ccccc1N1CCN(C(=O)c2oc3cc(C)c(C)cc3c2C)CC1	-22.4%	
O=c1[nH]c(C2CCCN(S(=O)(=O)c3ccc(F)cc3)C2)nc2c1nnn2Cc1ccccc1 (centres undefined)	30.2%	
CC(C)(C)c1ccc(NC(=O)COC(=O)C2(C)CC2(Cl)Cl)cc1 (centres undefined)	60.4%	
O=c1nc(NCc2ccco2)sc2ncccc12	34.7%	
NC(=O)CSc1cn(Cc2ccccc2)c2ccccc12	inactive: -34.1%	
COc1cc2c(cc1OC)C(c1ccccc1)N(C(=O)CCl)CC2 (centres undefined)	-85.6%	
Cc1ncoc1C(=O)Nc1ncc([N+](=O)[O-])s1		active: 4.47 µM
COc1ccc([N+](=O)[O-])cc1NCc1ccccc1		active: 31.6 µM
COC(=O)c1sc(NC(=S)NC(=O)c2ccccc2F)nc1C	inactive: -15.5%	
CCc1ccc2[nH]c(=O)c(C(c3nnnn3Cc3ccco3)N3CCC(C)CC3)cc2c1 (centres undefined)	34.2%	
CN1CCN(CC(=O)N2c3ccccc3C(C)(c3ccccc3)CC2(C)C)CC1 (centres undefined)	48.2%	
COc1ccc(-c2csc(NCc3ccco3)n2)cc1C		active: 31.6 µM
COCC(=O)N1CCCc2ccccc21	45.2%	
CCn1c2ccccc2c2cc(C3C(C#N)=C(N)Oc4n[nH]c(COC)c43)ccc21 (centres undefined)	-92.8%	
c1csc(CNc2ncnc3ccc(-c4ccc5c(c4)OCO5)cc23)c1	22.4%	
COCC(=O)Nc1nc(-c2ccc(C)cc2)c(C)s1	31.6%	
CCCCCCCCNC(=O)CCNC(=O)c1ccc(C(C)(C)C)cc1	inactive: -33.9%	
Clc1ccc(-c2nc3nc4ccccc4nc3n2Cc2ccco2)cc1		active: 17.8 µM
COc1ccc(S(=O)(=O)N(CCc2ccccc2)CC(=O)NC(C)C)cc1	34.6%	
COc1ccc(N2CCN(C(=O)C3CCCN(C(=O)c4cc5sccc5n4C)C3)CC2)cc1 (centres undefined)	inactive: -34.1%	

Given bar-delimited: entries from further up.
Structure (SMILES) | activity change, positive = activation | Potency
O=c1nc(NCc2ccco2)sc2ncccc12 | 34.7% | 
Clc1ccc(-c2nc3nc4ccccc4nc3n2Cc2ccco2)cc1 |  | active: 17.8 µM

Following part.

Structure (SMILES)	activity change, positive = activation	Potency
Cc1cc(C)n2nc(N)c(N=Nc3ccc(Cl)cc3)c2n1	inactive: -17.3%	
C/C(=C\C(=O)c1ccc(Br)cc1)Nc1ccc(Cl)cc1	132%	
O=C(c1cc(C(F)(F)F)cc(C(F)(F)F)c1)N1CCC2(CC1)CCN(c1ccccn1)CC2	inactive: -45%	
Cc1cccc(NC(=O)COc2ccccc2C)n1	33.1%	
Cc1cccc(N2CCN(C(=O)C3CCCN(S(=O)(=O)c4ccc(Br)s4)C3)CC2)c1C (centres undefined)	inactive: -56%	
COc1ccc(CNc2nc3ccccc3n2Cc2ccc(C)cc2)cc1OC	-69.9%	
Cc1ccc2nc(CSc3nc(C)cc(C)c3C#N)[nH]c2c1		active: 4.47 µM
CCOc1ccc(C)cc1S(=O)(=O)n1ccc(C)n1	39.6%	
CSc1nnc(-c2cc3c(s2)-c2ccccc2CC3)o1		active: 17.8 µM
Cc1cc(C)nc(N(C#N)CC(=O)c2ccccc2)n1	41.2%	
Cc1ccc2c(c1)c(=O)c1ccccc1n2CCCC(=O)Nc1ccc(C)c(F)c1	inactive: -61.3%	
CC(=Nc1ccc(C)cc1)c1sc2ccccc2c1O		active: 0.631 µM
CCCCOc1ccc(C2(C(=O)O)CCCC2)cc1	38.4%	
CC(=O)c1c(C)[nH]c(C(=O)OCCCCN2C(=O)c3ccccc3C2=O)c1C	inactive: -48.4%	
CCCN1C=CC(=C/C=C(\C#N)C(=O)OCC)C=C1		active: 14.1 µM
COC(=O)c1cc(COC(=O)c2ccc(OC)c(S(=O)(=O)N3CCCC3)c2)oc1C	26%	
CCCNC(=O)NC(=O)COC(=O)CC(NC(N)=O)c1ccc(Cl)cc1 (centres undefined)	-31.1%	
Cc1c(NC(=O)C2CC=CCC2C(=O)O)c(=O)n(-c2ccccc2)n1C (centres undefined)	22.8%	
S=C(NCCc1ccccc1)Nc1ccccn1	64.2%	
COc1ccc(C(=O)N2CCN(c3nc4cc(C)ccc4cc3C#N)CC2)c(OC)c1	inactive: -38.7%	
Cc1cc(NC(=O)CSc2nc3ccsc3c(=O)n2CCCC(=O)NCCc2ccccc2)no1	-20.9%	
Cc1ccc(C(=O)Nc2ccc3c(c2)nc2n3CCSC2)cc1	80.3%	

Random excerpt: 5 records from the list.
Structure (SMILES)	activity change, positive = activation	Potency
CC(=O)c1c(C)[nH]c(C(=O)OCCCCN2C(=O)c3ccccc3C2=O)c1C	inactive: -48.4%	
CC(=Nc1ccc(C)cc1)c1sc2ccccc2c1O		active: 0.631 µM
CCCCCCCCNC(=O)CCNC(=O)c1ccc(C(C)(C)C)cc1	inactive: -33.9%	
S=C(NCCc1ccccc1)Nc1ccccn1	64.2%	
CCn1c(COc2ccccc2C)nnc1SCC(=O)Nc1ccc2c(c1)OCCO2	27.2%	

Following part

Structure (SMILES)	activity change, positive = activation	Potency
Cc1cccc(CSc2nc3c(sc4ccccc43)c(=O)n2CCC(=O)NC(C)C)c1	56.4%	
CCN(CC)c1ccc(C2C3CCCCC3(O)CCN2CC(=O)N2CCCCC2)cc1 (centres undefined)	36.7%	
O=S(=O)(c1cccc(S(=O)(=O)N2CCCC2)c1)c1cccc(S(=O)(=O)N2CCCC2)c1	inactive: -33.2%	
COc1ccc(NC(=O)c2ccc([N+](=O)[O-])s2)c([N+](=O)[O-])c1	53.9%	
O=C1c2ccccc2NC(c2ccc([N+](=O)[O-])cc2)N1O (centres undefined)	inactive: -68.1%	
CCOC(=O)c1[nH]c2ccc(OC)cc2c1NC(=O)CN1CCC2(CC1)OCCO2	41.6%	
CC(C)(C)c1csc(NNC(=O)c2ccc(Br)cc2)n1	inactive: -61.5%	
CC1CCC/C(=N\NC(=O)COc2ccccc2Cl)C1 (centres undefined)	-13.3%	
Cc1[nH]n2c(=O)c3c(nc2c1-c1ccc(Cl)cc1)CCC3	-56.7%	
Cc1csc2ncc(C(=O)Nc3ccccc3F)c(=O)n12		active: 12.6 µM
CC(/C=N/NC(=O)c1nn(C)c(C)c1Br)=C\c1ccccc1	142%	
Cc1cccc(CSC2=NN3CCCC(=O)N=C3S2)c1	42.6%	
O=C(Nc1ccc(Sc2ccc(Br)cc2)cc1)c1ccco1	-34%	
CCOC(=O)CNC(=O)c1ccc(OCC(F)(F)F)cc1		active: 12.6 µM
COCc1nnc(N)s1	34.1%	
Cc1ccc(-c2nn(-c3ccccc3)cc2CN(Cc2ccccc2)C(=O)c2ccco2)o1	inactive: -35.8%	
O=C(Nc1ccc(F)cc1)N1CCN2C(=O)c3ccccc3C12c1ccccc1 (centres undefined)	30.6%	
CN1c2ccsc2C(O)=C(C(=S)Nc2ccc(F)c(Cl)c2)S1(=O)=O	inactive: -43.3%	
CC(/C=C/c1ccc(OCc2ccccc2)cc1)=N\O		active: 11.2 µM
Cc1cccc2cc(CN(Cc3ccco3)C(=O)NC3CCCCC3)c(=O)[nH]c12	inactive: -30.4%	
O=C(CN(c1ccc(F)cc1)S(=O)(=O)c1ccc2c(c1)OCCO2)NCc1ccccn1	35.3%	
Cc1cc(C)c2oc(C(=O)Nc3c(C(=O)c4ccc(F)cc4)oc4ccccc34)cc(=O)c2c1	49.5%	

Structure (SMILES)	activity change, positive = activation	Potency
Cc1ccc(S(=O)(=O)NC(=O)COc2ccccc2C(N)=O)cc1	47.7%	
O=C(NCC1COc2ccccc2O1)c1ccc(Cl)cc1 (centres undefined)		active: 14.1 µM
Cc1cc(NC(=O)COC(=O)c2oc3c(ccc4ccccc43)c2C)no1	31.4%	
NC(=O)Cc1nc(-c2ccc([N+](=O)[O-])cc2)cs1	inactive: -31.9%	
Cc1nnc(SCCN2C(=O)c3ccccc3C2=O)[nH]c1=O	38.5%	
COc1ccc2cc3c(N)nn(C(=O)C4CCC(C(C)(C)C)CC4)c3nc2c1 (centres undefined)	inactive: -37.4%	
CN(C(=S)NCCN1CCOCC1)C(c1ccccc1)c1ccccc1	inactive: -31.5%	
CCSc1nnc(NC(=O)c2ccc(C)cc2)s1		active: 14.1 µM
O=C(COC(=O)/C=C/c1cccs1)NC1CC1	37%	
CCOc1ccc(C(=O)CCc2nc3ccccc3s2)cc1	-31.7%	
Clc1ccc(-c2ccnc(Oc3cc(Cl)ccc3Cl)n2)cc1	-33.5%	
CC(C)(C)c1nc2scc(-c3cccs3)c2c(=O)o1	43%	
O=C1CC(/C=C/c2ccc(Cl)cc2)=Nc2ccccc2N1	93.1%	
CC(C)Oc1ccc(C2c3c(oc4ccccc4c3=O)C(=O)N2CCCN2CCOCC2)cc1 (centres undefined)	35.9%	
O=C(O)c1ccc(/C=N/NC(=O)c2cc(-c3cccs3)nc3ccccc23)cc1	inactive: 4.02%	
CC(CN1CCOCC1)OC(=O)c1ccccc1Br (centres undefined)	-3.63%	
Fc1ccc(Nc2ccnc(Nc3ccc(F)cc3)n2)cc1	75.4%	
Cn1c(CN2CCCCC2)nc2cc(NC(=O)c3cccc(Br)c3)ccc21		inactive
CC(C)(C)c1csc(NC(=O)c2cccs2)n1	47.8%	
Cc1cccc(C)c1OCC(O)CN1CCC(CN2C(=O)c3cccc4cccc(c34)C2=O)CC1 (centres undefined)	-70.9%	
COc1ccc(O)c(C(=O)CC(=O)c2ccccc2)c1		active: 1.78 µM
O=C(Nc1ccc(N2CCOCC2)cc1)Nc1cnsn1		active: 12.6 µM

Structure (SMILES)	activity change, positive = activation	Potency
COC(=O)c1c(C)[nH]c(C(=O)CSc2ccc(Cl)cc2)c1C		active: 11.2 µM
O=c1c2cc(-c3ccccc3)sc2nc2n1CCC2		active: 3.16 µM
CN(C)S(=O)(=O)c1cccc(C(=O)NCC2CCCO2)c1 (centres undefined)	58.8%	
Cc1c(CCO)c(=O)n(-c2ccccc2)n1S(=O)(=O)c1ccc([N+](=O)[O-])cc1	32.1%	
O=C(/C=C/c1ccccc1)Nc1scc(-c2ccccc2)c1C(=O)O		active: 11.2 µM
COc1ccccc1-c1ccc(SCc2cccc(C)c2)nn1	inactive: -58.3%	
Cc1cc(N/N=C/c2ccncc2)nc2ccccc12		active: 14.1 µM
CC(C)n1cnc2c(NCc3ccccc3)nc(NCCO)nc21	35.4%	
OC(COCc1ccc(Cl)cc1)CN1CCN(CC(O)COCc2ccc(Cl)cc2)CC1 (centres undefined)	inactive: -50.6%	
Nc1cc(=O)nc(SCc2ccccc2)n1Cc1ccco1	25.9%	
Cc1ccc(-c2cn(-c3cccc(Cl)c3)c(S(=O)(=O)CC(=O)Nc3ccccc3F)n2)cc1		active: 12.6 µM
CC(C)C(=O)Nc1ccc(NC(=O)c2ccccc2Cl)nc1	29.3%	
CCOC(=O)N1CCN(c2cc(=O)n(-c3ccc(OCC)cc3)c(=O)[nH]2)CC1	32.1%	
COc1cc2c(cc1OC)CN(c1nc(CN3CCCCC3)nc3sc4c(c13)CCCC4)CC2	inactive: -23.1%	
S=C(NCc1cccs1)Nc1ccccc1	13.7%	
CCC(C)NC(=O)c1ccccc1C(=O)NC(C)CC (centres undefined)	45.3%	
CC1Cn2c(nc(=O)c3c2NCN(CCc2ccccc2)C3)S1 (centres undefined)	33.6%	
O=C(c1cccs1)c1no[n+]([O-])c1C(=O)c1cccs1	-73.4%	
CCSc1nnc(NC(=O)c2cccnc2Cl)s1		active: 17.8 µM
COC(=O)c1cc2c(cc1[N+](=O)[O-])OCO2	30.8%	
Cc1ccc(C)c(N2CCN(C(=O)C3CCCCN3S(=O)(=O)c3ccc(F)cc3)CC2)c1 (centres undefined)	-65%	
